The test system of this test is TNFα. Description: Cot Monocyte TNFα Cell Based Assay. Particulars: read-out: EC50 TNF, LPS-stimulated human monocytes.

Structures were worked out from names or drawings and are uncertain.

With `CC(C)(C)CNc1c(C#N)cnc2c(C#N)cc(N[C@H](c3cn([C@H]4C[C@@H]4F)nn3)c3cccc4cnccc34)cc12`, the 50% effective concentration (EC50) (in general, the concentration that produces a half-maximal response) is 23 nM.

Source of the values: US11066414B2, “Cot modulators and methods of use thereof” (Gilead Sciences, Inc., priority 2015, dated 2021).
